PubChem BioAssay AID720505 | Drosophila RNAi Screening Center – 2013

Aim: 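Fly regulators or components of the CRAC channel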 (primary screen)
Cells: Drosophila S2R+ cells
Reagents: long dsRNA against Drosophila genes
Treatment: thapsigargin (2 µM) in calcium-free buffer to empty internal stores, then 2 mM calcium added back
Measured: 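Fluo-4 signal in 384-well plates read on a FLIPR after thapsigargin (2 µM, calcium-free) store depletion and 2 mM calcium add-back; unnormalised mean endpoint per well; screen run twice, selected wells retested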
Reading the numbers: calcium signal and retest calcium signal: higher = more calcium entry after store depletion
Call rule: 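Knock-downs counted as hits when calcium entry dropped relative to STIM1 positive and Rho1 negative controls present on each plate; roughly 1500 genes called, with reductions of differing size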
Calls: active = called as lowering calcium entry; inactive = not called
The deposit covers about 20,000 reagents; shown is a random part of those that have a named target and a result. In the full data, about 2,100 (10%) are marked active. 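Raw plate signals without normalisation; calls rest on control-based scores that were not deposited; replicate 2 separates called from uncalled poorly.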 Names joined by + are all predicted targets of the reagent. No sequences are given here. The record does not give: the amount of reagent, the time to read-out.

gene knocked down	DRSC id	calcium signal, replicate 1	calcium signal, replicate 2	retest calcium signal, replicate 1	retest calcium signal, replicate 2	call
CG34353 (GeneID 5740590)	DRSC14493	82.1	118			inactive
CG34353 (GeneID 5740590)	DRSC14517	104	99.6			inactive
CG34353 (GeneID 5740590)	DRSC14563	133	95.1			inactive
CG34353 (GeneID 5740590)	DRSC15837	132	82.1			inactive
CG34353 (GeneID 5740590)	DRSC22429	88	165			inactive
mRpL2 (GeneID 39253)	DRSC10896	102	91.9			inactive
CG1647 (GeneID 43401)	DRSC15134	133	129			inactive
CG10317 (GeneID 41987)	DRSC14229	104	144			inactive
BomBc2 (GeneID 37102)	DRSC06502	223	157			inactive
Rca1 (GeneID 33959)	DRSC03407	95.9	165			inactive
Osi3 (GeneID 40757)	DRSC12175	114	130			inactive
alpha-Est5 (GeneID 40905)	DRSC12617	98	117			inactive
CG1542 (GeneID 43691)	DRSC15035	81.5	90.9			inactive
CG9259 (GeneID 35372)	DRSC03174	70.5	136			inactive
Or85d (GeneID 41011)	DRSC16767	110	122			inactive
Megf8 (GeneID 34099)	DRSC03058	142	215			inactive
CG13924 (GeneID 38247)	DRSC08393	95.6	103			inactive
CG11317 (GeneID 43676)	DRSC14299	117	150			inactive
Sgt (GeneID 35052)	DRSC02812	108	116			inactive
Ppa (GeneID 37602)	DRSC04598	140	142			inactive
CG11333 (GeneID 43714)	DRSC14301	69.1	106			inactive
CG9967 (GeneID 33414)	DRSC00742	88.3	140	86.9	117	inactive
Gr47a (GeneID 36094)	DRSC06221	139	173			inactive
FoxP (GeneID 41182)	DRSC15159	145	126			inactive
FoxP (GeneID 41182)	DRSC21961	67.8	204			inactive
Tctp (GeneID 41341)	DRSC15649	103	102			inactive
CG6262 (GeneID 36833)	DRSC06971	169	179			inactive
CG6262 (GeneID 36833)	DRSC23105	87.4	152			inactive
CG2003 (GeneID 43761)	DRSC15411	85.3	138			inactive
casp (GeneID 36769)	DRSC07164	140	104			inactive
GramD1B (GeneID 33552)	DRSC00426	123	106			inactive
GramD1B (GeneID 33552)	DRSC00591	138	176			inactive
CG8654 (GeneID 37275)	DRSC07231	145	106			inactive
CG9289 (GeneID 34195)	DRSC03187	160	155			inactive
spirit (GeneID 31797)	DRSC18202	124	94.6			inactive
MYPT-75D (GeneID 40032)	DRSC10743	129	120			inactive
CG34002 (GeneID 3885644)	DRSC09512	6403	106			inactive
CG6479 (GeneID 39930)	DRSC10647	99.1	111			inactive
CG8945 (GeneID 32693)	DRSC20129	108	97.1			inactive
CG8945 (GeneID 32693)	DRSC20130	116	133			inactive
CG34194 (GeneID 5740534)	DRSC05666	127	89.1			inactive
CG13380 + CG4174	DRSC09988	104	99.8			inactive
CG13380 + CG4174	DRSC10406	93.8	84.7			active
Dhps (GeneID 38917)	DRSC10948	93.5	99.6			inactive
CG4404 (GeneID 32241)	DRSC19897	101	88.6			inactive
CG13044 (GeneID 39795)	DRSC09925	136	157			inactive
dom (GeneID 45655)	DRSC04558	73.3	146			active
dom (GeneID 45655)	DRSC04559	160	101			inactive
mRNA-cap (GeneID 32379)	DRSC19789	45.7	98.3			active
CG18823 (GeneID 59184)	DRSC18168	104	144			inactive
Cyp4d20 (GeneID 38311)	DRSC08654	121	81			inactive
TwdlU (GeneID 5740279)	DRSC12224	108	126			inactive
CG17362 (GeneID 39545)	DRSC10267	109	99.6			inactive
Pp1-Y2 (GeneID 3355173)	DRSC21608	118	110			inactive
Idua (GeneID 34544)	DRSC02941	99.3	114			inactive
pippin (GeneID 37770)	DRSC04489	99.9	85.6			inactive
CG4408 (GeneID 42762)	DRSC15574	195	324			inactive
CG4098 (GeneID 39854)	DRSC10399	125	177			inactive
eloF (GeneID 41211)	DRSC15162	144	96.7			inactive
AkhR (GeneID 33942)	DRSC03329	69.2	111			inactive
CG14569 (GeneID 40417)	DRSC11730	112	171			inactive
Nse1 (GeneID 33938)	DRSC02147	85	117			inactive
CG7142 (GeneID 42194)	DRSC16204	148	131			inactive
CG32462 + asRNA:CR43426	DRSC11851	129	124			inactive
Pfrx (GeneID 32938)	DRSC18856	182	116			inactive
Pfrx (GeneID 32938)	DRSC19315	110	103			inactive
jumu (GeneID 41265)	DRSC16651	158	121			inactive
lectin-24A (GeneID 53543)	DRSC00604	140	78.8			inactive
coro (GeneID 35596)	DRSC05007	135	91.2			inactive
coro (GeneID 35596)	DRSC21417	169	129			inactive
schuy (GeneID 40184)	DRSC10284	109	129			inactive
cactin (GeneID 33043)	DRSC20576	74.3	123			active
e(y)2 (GeneID 45848)	DRSC19640	75.5	87.6			inactive
CG4287 (GeneID 41939)	DRSC15559	145	139			inactive
Ugt303B1 (GeneID 42775)	DRSC15141	265	143			inactive
CG5662 (GeneID 32450)	DRSC19957	152	152			inactive
L (GeneID 36609)	DRSC06666	114	105			inactive
L (GeneID 36609)	DRSC06668	94.7	143			inactive
CG14298 (GeneID 42259)	DRSC14777	67.9	107			active
CG32751 (GeneID 318189)	DRSC21770	124	80.6			inactive
Cyp313a3 (GeneID 41488)	DRSC16626	61	83.8			active
CG34163 (GeneID 5740407)	DRSC01219	112	96.1			active
CG14082 (GeneID 40088)	DRSC10086	73	135			inactive

Part of the list above, reduced to “calcium signal, replicate 1”.
CG34002 (GeneID 3885644) [DRSC09512]	6403
CG6479 (GeneID 39930) [DRSC10647]	99.1
CG8945 (GeneID 32693) [DRSC20129]	108
CG8945 (GeneID 32693) [DRSC20130]	116
CG34194 (GeneID 5740534) [DRSC05666]	127
CG13380 + CG4174 [DRSC09988]	104
CG13380 + CG4174 [DRSC10406]	93.8
Dhps (GeneID 38917) [DRSC10948]	93.5
